From the supplement of paper PMC12889115
The other results are listed elsewhere or left out. These are raw signals, not scaled to a control.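 First-pass screen: polymyxin B was added at a level that permeabilizes the Salmonella outer membrane while sparing the inner membrane. DMSO wells, with and without polymyxin B, defined maximum growth. Because plates differed from one another, each plate's data were ranked separately and the compounds with the lowest OD600 were carried forward as hits.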

Tested on: Salmonella enterica serovar Typhimurium SL1344
Test: bacterial growth OD600 after 18 h with compound and polymyxin B; higher = more bacterial growth (less inhibition)
Details: 50 µM, Mueller-Hinton broth

Row | Compound | bacterial growth OD600 (polymyxin B 1 µg/mL) | bacterial growth OD600 (polymyxin B 0.75 µg/mL)
1 | COc1ccc2ccc(OCc3nc(C(=O)N(C)Cc4cccnc4)co3)cc2c1 | 0.832 | –
2 | COCCO[C@H]1[C@H](NC(=O)C(C)C)c2ccccc2C12CCN(Cc1cccc(F)c1F)CC2 | – | 0.793
3 | OCC1(Cc2ccccc2F)CCCN(Cc2cnn(-c3ccccc3)c2)C1 (configuration not stated) | 0.848 | –
4 | CC(C)(C)CN1CCCC(O)(CNCc2ccc(-n3cncn3)cc2)C1=O (configuration not stated) | 1.03 | –
5 | O=C(CCC1CCN(C(=O)C2CCCO2)CC1)NCc1cccc(C(F)(F)F)c1 (configuration not stated) | 0.972 | –
6 | CN(CC(O)COc1ccccc1CN1CCCCO1)C1CCCCC1 (configuration not stated) | 0.941 | –
7 | CCCn1c(C)c(CC(=O)NC(C)Cn2cncn2)c2c1CC(C)(C)CC2=O (configuration not stated) | 0.796 | –
8 | Cc1noc(C)c1CCC(=O)NCc1cccnc1-n1cnc2ccccc21 | 0.919 | –
9 | Cn1nccc1C(=O)N1CCCC(CCc2ccc(F)cc2F)C1 (configuration not stated) | – | 0.578
10 | CCCCC1CN(CCNC(=O)C(c2cccnc2)N2CCOCC2)Cc2ccccc2O1 (configuration not stated) | – | 0.797
11 | CN(Cc1cccnc1)C(=O)CC(c1ccccc1)c1ccc(Cl)cc1 (configuration not stated) | 0.035 | –
12 | COC(=O)CC1C(=O)NCCN1C(=O)c1ccc2nc(C3CCCCC3)oc2c1 (configuration not stated) | – | 0.795
13 | COCCCNc1nc2nonc2nc1N1CCCCC1c1cccnc1 (configuration not stated) | 0.805 | –
14 | Cc1ccc(C(=O)N2CCCC(CCC(=O)Nc3ccc(F)cc3C)C2)cn1 (configuration not stated) | 0.629 | –
15 | COc1ccc(CN2CCN(Cc3ccc(C)o3)C(CCO)C2)c(OC)c1C (configuration not stated) | 0.809 | –
16 | C=CCS(=O)(=O)N1CCC2(CCCN(Cc3cccc(F)c3F)C2=O)C1 (configuration not stated) | 0.968 | –

2 consecutive entries from above, for reference:
Row | Compound | bacterial growth OD600 (polymyxin B 1 µg/mL) | bacterial growth OD600 (polymyxin B 0.75 µg/mL)
4 | CC(C)(C)CN1CCCC(O)(CNCc2ccc(-n3cncn3)cc2)C1=O (configuration not stated) | 1.03 | –
5 | O=C(CCC1CCN(C(=O)C2CCCO2)CC1)NCc1cccc(C(F)(F)F)c1 (configuration not stated) | 0.972 | –

Remaining list, next part:

Row | Compound | bacterial growth OD600 (polymyxin B 1 µg/mL) | bacterial growth OD600 (polymyxin B 0.75 µg/mL)
17 | COC(=O)CN(C)c1ccc(-c2nc(-c3ccccc3F)no2)cn1 | 0.989 | –
18 | COc1ccc(CN2CCCC(CO)(Cc3ccccc3F)C2)c(F)c1 (configuration not stated) | 0.761 | –
19 | COc1ccc(OC)c(CN2CCCC(C(=O)c3cc(F)ccc3OC)C2)c1 (configuration not stated) | – | 0.751
20 | Cc1nccn1-c1ccc(NC(=O)C2CCCN2CC2CC2)cc1 (configuration not stated) | – | 0.838
21 | CN(CCN1CCOCC1)C(=O)c1cc(COc2cccc(F)c2)[nH]n1 | 1.1 | –
22 | CC(=O)NCCNC(=O)Cc1c2c(n(Cc3ccccc3F)c1C)CCCC2=O | – | 0.205
23 | CC(=O)c1cccc(OCc2cc(C(=O)N(C)Cc3ccc(F)cc3)n[nH]2)c1 | 0.904 | –
24 | CC(=O)NCCC1CCCCN1c1nc2nonc2nc1N1CCSCC1 (configuration not stated) | – | 0.816
25 | COC(=O)c1ccc(CN2CCC3(CC2)c2ccccc2[C@@H](NC(=O)c2ccco2)[C@@H]3OC)cc1 | – | 0.809
26 | CN(Cc1ccccc1)c1ncc2c(n1)CC(C)(C)CC2NC1CCOCC1 (configuration not stated) | 0.46 | –
27 | CC(=O)Nc1ccc(CN2CC[C@@H](N(C)CCc3ccccn3)[C@H](O)C2)cc1 | – | 0.803
28 | COc1ccc2c(c1)SC(c1ccc(OC)c(C)c1)CCN2Cc1cnn(C)c1C (configuration not stated) | – | 0.001
29 | Fc1ccc(-n2cccn2)c(CNCc2cccnc2Oc2ccccc2)c1 | 1.03 | –
30 | O=C1CCC(CCC(=O)N2CCN(C(=O)c3ccco3)CC2)(Cc2ccc(-c3ccccc3)cc2)N1 (configuration not stated) | – | 0.894
31 | Cc1nn(C)c(C)c1CN(Cc1nc(-c2cccc(Cl)c2)oc1C)C1CC1 | – | 0.005
32 | CCN1CCN(c2ccc(-c3nc(-c4ccccc4C)no3)cn2)CC1 | – | 0.002
